Source: the supplement of paper PMC9233669
Variants at the background level are over-represented here.

How the values were obtained:
biotinyl-Ile-oxazolone = assay: self-aminoacylation, catalytic enhancement (BIO) (fold over background); higher = more active; k-Seq, kA / k0A0; sequences stand for … in GGGAAUGGAUCCACAUCUACGAAUUC…UUCACUGCAGACUUGACGAAGCUG
Procedure, shortened: (§1)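 Working in 50 μL HEPES/NaCl/KCl/MgCl2/CaCl2 buffer with 5% acetonitrile at pH 6.9–7.0, mutagenized RNA pools (0.43 μM; 21-nt variable region) were reacted with 2–1250 μM of each biotinyl-aminoacyl-oxazolone for 90 minutes at room temperature. Streptavidin capture followed, with quantification by triplicate qPCR and Illumina sequencing. Catalytic enhancement is reported as median kA over the uncatalyzed rate, the low-activity peak of a bimodal Gaussian fit to the data.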

biotinyl-Val-oxazolone = assay: self-aminoacylation, catalytic enhancement (BVO) (fold over background); higher = more active; k-Seq, kA / k0A0; sequences stand for … in GGGAAUGGAUCCACAUCUACGAAUUC…UUCACUGCAGACUUGACGAAGCUG
Procedure, shortened: as §1

biotinyl-Leu-oxazolone = assay: self-aminoacylation, catalytic enhancement (BLO) (fold over background); higher = more active; k-Seq, kA / k0A0; sequences stand for … in GGGAAUGGAUCCACAUCUACGAAUUC…UUCACUGCAGACUUGACGAAGCUG
Procedure, shortened: as §1

biotinyl-Met-oxazolone = assay: self-aminoacylation, catalytic enhancement (BMO) (fold over background); higher = more active; k-Seq, kA / k0A0; sequences stand for … in GGGAAUGGAUCCACAUCUACGAAUUC…UUCACUGCAGACUUGACGAAGCUG
Procedure, shortened: as §1

| Sequence | self-aminoacylation (biotinyl-Ile-oxazolone) | self-aminoacylation (biotinyl-Val-oxazolone) | self-aminoacylation (biotinyl-Leu-oxazolone) | self-aminoacylation (biotinyl-Met-oxazolone) |
| --- | --- | --- | --- | --- |
| AAGUUUCCUAAUACUCGCAAG [Fam3.1 aminoacylation ribozyme variant] | 0.862 | 0.889 | 0.891 | 1 |
| AAGUUUGCAAAUAGUCUCAAG [Fam3.1 aminoacylation ribozyme variant] | 0.987 | 0.772 | 0.747 | 1.12 |
| AAGUUUGCGAAGAGUCGCAAG [Fam3.1 aminoacylation ribozyme variant] | 1.36 | 1.21 | 1.04 | 0.955 |
| AAGUUUGCUGAUACUCGCAAG [Fam3.1 aminoacylation ribozyme variant] | 1.11 | 0.897 | 0.885 | 0.744 |
| AAGUUUGGUAAUAGUCGCAAG [Fam3.1 aminoacylation ribozyme variant] | 1.32 | 1.19 | 1.25 | 1.22 |
| AAUUCUGCUAAUAGUCGCAAG [Fam3.1 aminoacylation ribozyme variant] | 1.88 | 1.56 | 1.61 | 1.81 |
| ACGUUUGCUAAUAGUCGCAAG [Fam3.1 aminoacylation ribozyme variant] | 1.7 | 1.49 | 1.69 | 1.87 |
| AGUACCCUGGUCCUCGAGUGA [Fam2.1 aminoacylation ribozyme variant] | 2.7 | 2.81 | 5.58 | 4.14 |
| AGUGCCCUGGUCAUCGAGUGA [Fam2.1 aminoacylation ribozyme variant] | 6.36 | 5.79 | 14.5 | 12.5 |
| AUACUUCAAACAAUAGGUCUG [Fam1A.1 aminoacylation ribozyme variant] | 1.08 | 0.923 | 0.835 | 0.812 |
| AUACUUCAAACAAUCGGUCGG [Fam1A.1 aminoacylation ribozyme variant] | 1 | 0.883 | 1.18 | 1.07 |
| AUCACCCUGGUCAUCGAAUGA [Fam2.1 aminoacylation ribozyme variant] | 1.26 | 1.41 | 1.29 | 1.13 |
| AUCACCCUGGUGAUCGAGUGA [Fam2.1 aminoacylation ribozyme variant] | 3.57 | 3.87 | 8.91 | 7.25 |
| AUGUUUGCUAAUAGUCGCAAG [Fam3.1 aminoacylation ribozyme variant] | 1.51 | 1.4 | 1.29 | 1.48 |
| AUUACAGUGGUCAUCGAGUGA [Fam2.1 aminoacylation ribozyme variant] | 1.75 | 1.76 | 1.44 | 1.87 |
| AUUACCAUGGUCAUCGAGGGA [Fam2.1 aminoacylation ribozyme variant] | 1.75 | 1.46 | 1.65 | 1.94 |
| AUUACCCAAGUCAUCGAGUGA [Fam2.1 aminoacylation ribozyme variant] | 4.5 | 4.46 | 9.5 | 8.57 |
| AUUACCCUGGUGAUCCAGUGA [Fam2.1 aminoacylation ribozyme variant] | 4.33 | 4.65 | 9.64 | 9.84 |
| AUUACCCUGGUGAUCGCGUGA [Fam2.1 aminoacylation ribozyme variant] | 3.45 | 4.19 | 4.38 | 4.66 |
| AUUACCGUGGUCAUCGCGUGA [Fam2.1 aminoacylation ribozyme variant] | 8.94 | 11 | 21.5 | 17.7 |
| AUUACCUUGGUAAUCGAGUGA [Fam2.1 aminoacylation ribozyme variant] | 3.52 | 3.87 | 8.08 | 7.66 |
| AUUCACCUACGUCAGCGGGUG [Fam2.2 aminoacylation ribozyme variant] | 2.95 | 2.71 | 6.17 | 4.72 |
| AUUCACCUAGGGCAUUGGGUG [Fam2.2 aminoacylation ribozyme variant] | 3.74 | 3.49 | 8.05 | 6.54 |
| AUUCACCUAGGUCAUCCGGUG [Fam2.2 aminoacylation ribozyme variant] | 4.67 | 4.69 | 8.38 | 6.35 |
| AUUCACCUUGGUCAUCGGGUC [Fam2.2 aminoacylation ribozyme variant] | 1.2 | 1.58 | 1.15 | 1.32 |

| Sequence | self-aminoacylation (biotinyl-Ile-oxazolone) | self-aminoacylation (biotinyl-Val-oxazolone) | self-aminoacylation (biotinyl-Leu-oxazolone) | self-aminoacylation (biotinyl-Met-oxazolone) |
| --- | --- | --- | --- | --- |
| AUUCACGUAGGUCAUCGGGUA [Fam2.2 aminoacylation ribozyme variant] | 2.9 | 3.72 | 2.95 | 3.16 |
| AUUCCCCUAGGUCAGCGGGUG [Fam2.2 aminoacylation ribozyme variant] | 8.05 | 7.83 | 14.1 | 11.1 |
| AUUCGCCUAGGUCAUCGGAUG [Fam2.2 aminoacylation ribozyme variant] | 0.941 | 1.07 | 0.903 | 0.94 |
| AUUGACCUAGGUCAUCGGGAG [Fam2.2 aminoacylation ribozyme variant] | 1.67 | 1.48 | 1.35 | 1.33 |
| AUUUCCCUGUUCAUCGAGUGA [Fam2.1 aminoacylation ribozyme variant] | 2.79 | 3.09 | 5.04 | 5.22 |
| CAACAUCAAACAAUCGGUCUG [Fam1A.1 aminoacylation ribozyme variant] | 1.1 | 0.87 | 0.886 | 0.835 |
| CAACUUCAAACAAUCGCUCUG [Fam1A.1 aminoacylation ribozyme variant] | 1.34 | 1.31 | 1.41 | 1.14 |
| CAACUUCAAACAAUCGGUCCG [Fam1A.1 aminoacylation ribozyme variant] | 0.872 | 0.944 | 1.2 | 0.704 |
| CAACUUCAAACAAUCGGUCUA [Fam1A.1 aminoacylation ribozyme variant] | 1.31 | 1.29 | 1.37 | 0.924 |
| CCAAACUUCAAGCAAUCGGUU [Fam1B.1 aminoacylation ribozyme variant] | 1.61 | 1.66 | 1.65 | 1.73 |
| CCACACGUCAAGCAAUCGGCC [Fam1B.1 aminoacylation ribozyme variant] | 1.05 | 1.54 | 0.806 | 1.33 |
| CCACACUUCAAGCAGUCUGUC [Fam1B.1 aminoacylation ribozyme variant] | 0.339 | 0.478 | 0.353 | 0.383 |
| CCACACUUCAAGCCAUAGGUC [Fam1B.1 aminoacylation ribozyme variant] | 0.812 | 0.688 | 0.632 | 0.622 |
| CCACACUUCACGCGAUCGGUC [Fam1B.1 aminoacylation ribozyme variant] | 1.46 | 2.17 | 1.84 | 1.48 |
| CCACAGUUCAAGCAAUCGGUC [Fam1B.1 aminoacylation ribozyme variant] | 1.1 | 1.13 | 1.1 | 1.01 |
| CCACCCUUCAAUCAAUCGGUC [Fam1B.1 aminoacylation ribozyme variant] | 1.2 | 1.25 | 1.54 | 1.19 |
| CCACCUCAAACAAUCGGUCUG [Fam1A.1 aminoacylation ribozyme variant] | 1.52 | 1.95 | 1.43 | 1.5 |
| CCACUUCAAACAAUCGGCCUG [Fam1A.1 aminoacylation ribozyme variant] | 4.3 | 4.05 | 7.46 | 4.68 |
| CCACUUCAAAUAAUCGGUCUG [Fam1A.1 aminoacylation ribozyme variant] | 1.17 | 1.13 | 1.42 | 1.32 |
| CCCCACUUAAAGCAAUCGGUC [Fam1B.1 aminoacylation ribozyme variant] | 1.53 | 1.71 | 1.21 | 1.19 |
| CCCCACUUUAAGCAAUCGGUC [Fam1B.1 aminoacylation ribozyme variant] | 1.38 | 1.69 | 1.06 | 0.858 |
| CCGCACUUCAACCAAUCGGUC [Fam1B.1 aminoacylation ribozyme variant] | 2.09 | 2.38 | 3.41 | 2.05 |
| CGAAUUCAAACAAUCGGUCUG [Fam1A.1 aminoacylation ribozyme variant] | 0.96 | 0.84 | 1.03 | 0.875 |
| CGACCUCAAACAAUCGGUCUG [Fam1A.1 aminoacylation ribozyme variant] | 1.51 | 1.45 | 1.31 | 1.36 |
| CGACUUCAAACAAUCGGUCUA [Fam1A.1 aminoacylation ribozyme variant] | 1.19 | 1.43 | 1.17 | 0.98 |
